PubChem BioAssay AID493246 – Drosophila RNAi Screening Center, 2011
The deposit covers about 21,000 reagents; this is a random part of those with a known target gene and a result. Of all reagents, 429 (2%) were called active. 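Values are raw and not normalised between plates; calls rest on per-plate z-scores that were not deposited.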 A number with no mark means an inactive call. Reagents against one gene are numbered here. A plus sign joins genes that one reagent is predicted to hit. Not stated in the record: the amount of reagent, the time to read-out.

Aim: 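Genome-wide search for dsRNAs that reduce cell number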 (primary screen)
Cell system: Drosophila Kc and S2R+ cells
Knock-down reagent: long dsRNA against Drosophila genes
Measured: 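Cell number per well after knock-down, printed as raw plate values; calls were based on per-plate z-scores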
Reading the numbers: Kc cell number and S2R+ cell number: higher = more cells remaining
Call rule: 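Active when the per-plate z-score of cell number is 3 or more in the direction of fewer cells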

predicted target	reagent	Kc cell number, rep 1	Kc cell number, rep 2	S2R+ cell number, rep 1	S2R+ cell number, rep 2
Sfxn2 (Sideroflexin 2)	1	1.41e6	1.64e6	1.21e6	1.32e6
CG4306	1	1.18e6	1.40e6	1.31e6	1.38e6
RpL8 (Ribosomal protein L8)	1	8.67e5 (active)	9.12e5	5.71e5	7.29e5
RpL8 (Ribosomal protein L8)	2	8.43e5 (active)	8.86e5	5.81e5	7.23e5
Rpn10 (Regulatory particle non-ATPase 10)	1	1.23e6 (active)	1.26e6	8.09e5	9.29e5
Ibf2 (Insulator binding factor 2)	1	1.69e6	1.73e6	1.36e6	1.56e6
CG4328	1	1.11e6 (active)	1.12e6	7.08e5	8.45e5
Tsp86D (Tetraspanin 86D)	1	1.60e6	1.69e6	1.40e6	1.52e6
CG42713	1	1.63e6	1.68e6	1.09e6	1.23e6
ifc (infertile crescent)	1	1.21e6	1.27e6	7.14e5	9.52e5
CG6569	1	1.31e6	1.30e6	1.04e6	1.09e6
zda (zonda)	1	1.42e6	1.49e6	1.17e6	1.29e6
PGRP-LC (Peptidoglycan recognition protein LC)	1	1.46e6	1.50e6	1.17e6	1.34e6
PGRP-LC (Peptidoglycan recognition protein LC)	2	1.59e6	1.71e6	1.28e6	1.44e6
PGRP-LC (Peptidoglycan recognition protein LC)	3	1.65e6	1.59e6	1.17e6	1.46e6
Spf45	1	1.48e6	1.55e6	1.32e6	3.67e5
mfas (midline fasciclin)	1	1.49e6	1.50e6	1.16e6	1.25e6
CG13077	1	1.62e6	1.68e6	1.36e6	5.47e5
sbr (small bristles)	1	1.50e6	1.51e6	8.36e5	9.31e5
sbr (small bristles)	2	1.22e6 (active)	1.26e6	6.49e5	7.71e5
MED23 + CG3700	1	1.45e6	1.56e6	1.36e6	1.47e6
MED23 + CG3700	2	1.21e6	1.31e6	1.14e6	1.16e6
CG11741	1	1.44e6	1.55e6	1.23e6	1.31e6
Als2 (Amyotrophic lateral sclerosis 2)	1	1.47e6	1.54e6	1.14e6	1.19e6
Ada (Adenosine deaminase)	1	1.87e6	2.16e6	1.27e6	1.45e6
CG14410	1	1.63e6	1.62e6	1.22e6	1.29e6
vig2	1	1.57e6	1.50e6	1.20e6	1.29e6
CG4666	1	1.57e6	1.58e6	1.12e6	1.25e6
Strip (Striatin interacting protein)	1	1.22e6	1.25e6	1.29e6	1.06e6
dpr14 (defective proboscis extension response 14)	1	6.66e5		9.49e5	
ND-39 (NADH dehydrogenase (ubiquinone) 39 kDa subunit)	1	1.40e6	1.45e6	9.23e5	1.02e6
CG16713	1	1.52e6	1.43e6	1.19e6	1.28e6
CG6712	1	1.51e6	1.63e6	1.40e6	1.35e6
CG31321	1	1.38e6	1.59e6	1.05e6	1.14e6
CG33958	1	1.49e6	1.60e6	1.20e6	1.32e6
CG33958	2	1.56e6	1.59e6	1.15e6	1.24e6
CG17294	1	1.40e6	1.43e6	5.60e5	5.48e5
CG13694	1	1.55e6	1.57e6	1.09e6	1.25e6
ect (ectodermal)	1	1.55e6	1.61e6	1.03e6	1.20e6
ect (ectodermal)	2	1.48e6	1.43e6	1.30e6	1.33e6
MED11 (Mediator complex subunit 11)	1	4.88e5 (active)	7.12e5	5.21e5	6.62e5
Josd (Josephin domain containing)	1	1.55e6	1.55e6	1.11e6	1.16e6
c11.1	1	1.65e6	1.53e6	9.94e5	1.09e6
CG1698	1	1.33e6	1.35e6	1.16e6	1.16e6
eIF4E7 (eukaryotic translation initiation factor 4E7)	1	1.55e6	1.60e6	1.10e6	1.20e6
eIF4E7 (eukaryotic translation initiation factor 4E7)	2	1.45e6	1.47e6	1.02e6	1.18e6
RpS3A (Ribosomal protein S3A)	1	8.83e5 (active)	9.05e5	6.76e5	7.82e5
Snx6 (Sorting nexin 6)	1	1.42e6	1.42e6	6.25e5	7.84e5
CG5623	1	1.50e6	1.58e6	1.14e6	1.27e6
Hsp70Bb + Hsp70Bbb	1	1.45e6	1.58e6	1.24e6	1.33e6
Rop (Ras opposite)	1	1.29e6	1.36e6	1.20e6	1.16e6
drl (derailed)	1	1.34e6	1.40e6	1.29e6	1.33e6
CG17019	1	1.56e6	1.60e6	1.23e6	1.28e6
CG6414	1	1.53e6	1.54e6	1.05e6	1.16e6
Der-2 (Derlin-2)	1	1.53e6	1.59e6	9.85e5	1.10e6
sw + Sdic4 + Sdic3 + 2 more	1	1.54e6	1.58e6	1.07e6	1.17e6
Ugt37A2 (UDP-glycosyltransferase family 37 member A2)	1	1.95e6	2.00e6	1.33e6	1.31e6
Mur89F (Mucin related 89F)	1	1.36e6	1.42e6	1.24e6	1.36e6
Ctr9	1	1.42e6	1.46e6	9.92e5	9.84e5
